# Laboratory results: the supplement of paper PMC10849652
# The chains behind the UniProt entries cited, without tags or fusion partners. Where a name states a change or a piece, a line headed by the entry shows the natural chain unless it says otherwise.
# UniProt Q96BH1: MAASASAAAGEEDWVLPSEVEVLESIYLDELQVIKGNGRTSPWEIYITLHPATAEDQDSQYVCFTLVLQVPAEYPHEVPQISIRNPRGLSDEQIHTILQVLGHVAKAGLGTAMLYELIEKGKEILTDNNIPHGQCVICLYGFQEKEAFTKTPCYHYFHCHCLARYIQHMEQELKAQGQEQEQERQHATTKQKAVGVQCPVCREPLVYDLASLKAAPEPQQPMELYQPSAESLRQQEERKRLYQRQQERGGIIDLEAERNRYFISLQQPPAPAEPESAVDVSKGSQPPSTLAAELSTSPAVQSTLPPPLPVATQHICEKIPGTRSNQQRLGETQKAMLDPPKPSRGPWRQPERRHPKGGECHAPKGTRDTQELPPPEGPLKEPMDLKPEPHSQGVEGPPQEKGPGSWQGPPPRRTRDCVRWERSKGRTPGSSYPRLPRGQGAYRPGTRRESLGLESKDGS
# UniProt Q86WX3: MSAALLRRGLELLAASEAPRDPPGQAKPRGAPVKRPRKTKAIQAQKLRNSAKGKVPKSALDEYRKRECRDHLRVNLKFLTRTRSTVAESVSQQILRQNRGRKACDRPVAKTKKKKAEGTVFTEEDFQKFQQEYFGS
# UniProt Q9P2E9: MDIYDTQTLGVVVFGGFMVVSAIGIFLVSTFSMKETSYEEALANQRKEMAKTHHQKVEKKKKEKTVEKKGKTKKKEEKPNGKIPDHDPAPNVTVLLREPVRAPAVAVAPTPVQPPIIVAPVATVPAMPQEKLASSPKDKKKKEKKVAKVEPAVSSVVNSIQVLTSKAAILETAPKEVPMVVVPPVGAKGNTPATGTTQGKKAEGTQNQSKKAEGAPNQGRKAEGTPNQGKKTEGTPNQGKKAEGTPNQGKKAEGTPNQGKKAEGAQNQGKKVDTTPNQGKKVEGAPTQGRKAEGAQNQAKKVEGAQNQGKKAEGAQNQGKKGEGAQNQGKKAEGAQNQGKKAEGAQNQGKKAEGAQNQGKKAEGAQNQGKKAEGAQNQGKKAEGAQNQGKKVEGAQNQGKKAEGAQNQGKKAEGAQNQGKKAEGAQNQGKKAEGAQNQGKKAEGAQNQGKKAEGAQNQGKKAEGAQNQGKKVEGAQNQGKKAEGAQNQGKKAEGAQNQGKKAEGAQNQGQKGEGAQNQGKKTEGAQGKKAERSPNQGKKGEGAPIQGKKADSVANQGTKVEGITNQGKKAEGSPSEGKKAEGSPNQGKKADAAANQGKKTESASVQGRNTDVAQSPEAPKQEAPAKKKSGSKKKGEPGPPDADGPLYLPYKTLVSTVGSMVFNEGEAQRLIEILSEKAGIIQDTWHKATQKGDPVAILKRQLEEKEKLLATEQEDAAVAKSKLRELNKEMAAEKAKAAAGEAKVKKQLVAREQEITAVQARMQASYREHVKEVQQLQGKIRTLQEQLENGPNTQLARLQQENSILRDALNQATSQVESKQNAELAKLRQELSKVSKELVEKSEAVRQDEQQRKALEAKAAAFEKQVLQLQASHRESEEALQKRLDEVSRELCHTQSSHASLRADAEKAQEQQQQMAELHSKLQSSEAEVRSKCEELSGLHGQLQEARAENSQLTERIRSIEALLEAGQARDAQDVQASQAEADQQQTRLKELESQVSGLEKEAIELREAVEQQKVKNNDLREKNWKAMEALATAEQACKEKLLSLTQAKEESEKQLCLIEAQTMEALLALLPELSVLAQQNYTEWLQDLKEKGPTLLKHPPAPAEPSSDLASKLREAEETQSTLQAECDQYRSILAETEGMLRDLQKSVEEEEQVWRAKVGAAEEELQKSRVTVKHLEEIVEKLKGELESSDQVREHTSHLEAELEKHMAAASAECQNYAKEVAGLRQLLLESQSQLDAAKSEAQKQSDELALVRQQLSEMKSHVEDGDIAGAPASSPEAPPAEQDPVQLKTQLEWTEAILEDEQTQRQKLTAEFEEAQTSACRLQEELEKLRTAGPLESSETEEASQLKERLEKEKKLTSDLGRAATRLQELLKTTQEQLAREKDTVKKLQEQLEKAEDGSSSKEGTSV
# UniProt P10301: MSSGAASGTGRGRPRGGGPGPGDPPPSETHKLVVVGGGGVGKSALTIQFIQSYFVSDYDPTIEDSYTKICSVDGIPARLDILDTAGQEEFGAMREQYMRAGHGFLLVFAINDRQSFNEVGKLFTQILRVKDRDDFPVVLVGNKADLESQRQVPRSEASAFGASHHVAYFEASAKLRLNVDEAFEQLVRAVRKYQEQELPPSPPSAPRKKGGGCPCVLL
# UniProt O60942: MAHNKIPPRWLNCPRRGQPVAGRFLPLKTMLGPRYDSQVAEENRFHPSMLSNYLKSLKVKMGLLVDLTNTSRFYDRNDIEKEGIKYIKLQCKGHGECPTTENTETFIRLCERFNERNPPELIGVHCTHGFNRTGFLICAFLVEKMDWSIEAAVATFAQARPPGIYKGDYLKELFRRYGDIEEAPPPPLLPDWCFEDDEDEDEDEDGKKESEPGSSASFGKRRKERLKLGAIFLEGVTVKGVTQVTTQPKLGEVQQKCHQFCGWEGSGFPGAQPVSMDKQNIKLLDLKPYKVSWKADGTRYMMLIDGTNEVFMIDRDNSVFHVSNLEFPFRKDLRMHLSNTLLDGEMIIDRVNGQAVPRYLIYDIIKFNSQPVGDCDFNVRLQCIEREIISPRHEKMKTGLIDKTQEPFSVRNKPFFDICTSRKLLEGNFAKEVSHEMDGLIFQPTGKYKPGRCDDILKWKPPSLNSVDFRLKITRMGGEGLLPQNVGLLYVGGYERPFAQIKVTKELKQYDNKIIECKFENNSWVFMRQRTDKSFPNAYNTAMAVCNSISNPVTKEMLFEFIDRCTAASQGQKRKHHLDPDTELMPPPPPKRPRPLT
# UniProt Q9H6T3, whole entry, looked up: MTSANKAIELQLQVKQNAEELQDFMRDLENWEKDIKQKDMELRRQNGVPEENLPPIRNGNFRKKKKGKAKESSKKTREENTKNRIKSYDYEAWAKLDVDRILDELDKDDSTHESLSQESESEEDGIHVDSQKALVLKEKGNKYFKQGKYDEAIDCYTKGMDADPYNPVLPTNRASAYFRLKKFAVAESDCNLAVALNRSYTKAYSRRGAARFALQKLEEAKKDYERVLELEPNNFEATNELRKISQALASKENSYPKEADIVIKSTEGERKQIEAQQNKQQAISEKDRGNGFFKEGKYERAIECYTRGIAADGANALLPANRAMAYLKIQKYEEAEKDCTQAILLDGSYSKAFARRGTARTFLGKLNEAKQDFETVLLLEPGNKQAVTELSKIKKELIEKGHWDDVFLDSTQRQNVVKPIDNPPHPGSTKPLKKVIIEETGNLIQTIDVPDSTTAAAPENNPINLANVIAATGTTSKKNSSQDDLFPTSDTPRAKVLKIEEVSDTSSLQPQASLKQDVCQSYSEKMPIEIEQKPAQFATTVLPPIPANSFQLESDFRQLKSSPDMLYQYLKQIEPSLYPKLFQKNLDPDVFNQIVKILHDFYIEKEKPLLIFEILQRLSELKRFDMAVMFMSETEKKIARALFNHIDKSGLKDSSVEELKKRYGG
# UniProt Q92901: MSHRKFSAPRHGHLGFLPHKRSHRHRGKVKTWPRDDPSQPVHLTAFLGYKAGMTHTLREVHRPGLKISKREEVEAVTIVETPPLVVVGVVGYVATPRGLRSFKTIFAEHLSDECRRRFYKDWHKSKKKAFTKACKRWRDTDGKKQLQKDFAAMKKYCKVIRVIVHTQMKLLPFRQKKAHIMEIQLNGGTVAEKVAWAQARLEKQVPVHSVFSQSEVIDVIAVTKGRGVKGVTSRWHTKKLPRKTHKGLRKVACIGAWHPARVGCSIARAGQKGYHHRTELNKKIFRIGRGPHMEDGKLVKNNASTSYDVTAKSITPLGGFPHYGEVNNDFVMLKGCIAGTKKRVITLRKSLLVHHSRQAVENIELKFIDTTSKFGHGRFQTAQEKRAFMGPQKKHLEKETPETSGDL
# UniProt P13489: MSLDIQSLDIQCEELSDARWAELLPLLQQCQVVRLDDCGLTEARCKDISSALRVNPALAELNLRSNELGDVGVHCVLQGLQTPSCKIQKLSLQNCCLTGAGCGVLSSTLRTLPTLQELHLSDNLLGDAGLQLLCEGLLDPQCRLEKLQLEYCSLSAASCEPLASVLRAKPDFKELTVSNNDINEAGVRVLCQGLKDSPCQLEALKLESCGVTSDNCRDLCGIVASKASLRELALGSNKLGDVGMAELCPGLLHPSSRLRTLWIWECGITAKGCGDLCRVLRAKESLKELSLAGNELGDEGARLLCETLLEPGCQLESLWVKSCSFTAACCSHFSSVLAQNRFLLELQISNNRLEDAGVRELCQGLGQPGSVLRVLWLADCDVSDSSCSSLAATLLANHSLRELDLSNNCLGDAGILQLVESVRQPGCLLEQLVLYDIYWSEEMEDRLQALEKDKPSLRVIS
# UniProt P78346: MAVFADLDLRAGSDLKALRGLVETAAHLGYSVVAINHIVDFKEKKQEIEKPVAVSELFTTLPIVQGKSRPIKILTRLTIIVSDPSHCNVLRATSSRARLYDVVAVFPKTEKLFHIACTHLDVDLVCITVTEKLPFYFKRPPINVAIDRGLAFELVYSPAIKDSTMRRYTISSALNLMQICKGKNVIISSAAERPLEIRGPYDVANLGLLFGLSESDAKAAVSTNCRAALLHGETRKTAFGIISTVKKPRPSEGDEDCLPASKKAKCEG
# UniProt P10155: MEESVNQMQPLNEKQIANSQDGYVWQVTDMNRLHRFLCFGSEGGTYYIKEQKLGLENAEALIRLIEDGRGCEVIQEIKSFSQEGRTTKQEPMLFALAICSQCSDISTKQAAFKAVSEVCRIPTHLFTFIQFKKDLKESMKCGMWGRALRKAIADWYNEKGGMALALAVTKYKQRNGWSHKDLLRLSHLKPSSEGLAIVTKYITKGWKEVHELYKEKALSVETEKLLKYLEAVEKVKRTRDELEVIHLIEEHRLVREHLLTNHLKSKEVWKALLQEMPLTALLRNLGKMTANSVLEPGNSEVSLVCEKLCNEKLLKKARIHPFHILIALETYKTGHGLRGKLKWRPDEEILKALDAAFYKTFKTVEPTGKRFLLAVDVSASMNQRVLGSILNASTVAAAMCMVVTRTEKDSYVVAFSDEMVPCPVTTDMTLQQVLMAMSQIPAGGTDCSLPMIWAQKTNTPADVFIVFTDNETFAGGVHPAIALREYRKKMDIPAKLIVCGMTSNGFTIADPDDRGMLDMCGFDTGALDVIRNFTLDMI
# UniProt Q7LG56, whole entry, looked up: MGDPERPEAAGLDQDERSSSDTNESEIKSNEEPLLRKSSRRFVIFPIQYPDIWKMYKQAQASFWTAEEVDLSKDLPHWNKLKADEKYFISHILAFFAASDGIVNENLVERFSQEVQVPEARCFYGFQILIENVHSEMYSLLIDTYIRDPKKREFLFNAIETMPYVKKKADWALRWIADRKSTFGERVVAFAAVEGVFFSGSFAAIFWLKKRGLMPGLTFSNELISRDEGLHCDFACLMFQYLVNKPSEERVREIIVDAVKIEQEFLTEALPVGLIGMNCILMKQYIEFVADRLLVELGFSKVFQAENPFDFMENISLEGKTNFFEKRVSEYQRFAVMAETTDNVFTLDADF
# UniProt O75695: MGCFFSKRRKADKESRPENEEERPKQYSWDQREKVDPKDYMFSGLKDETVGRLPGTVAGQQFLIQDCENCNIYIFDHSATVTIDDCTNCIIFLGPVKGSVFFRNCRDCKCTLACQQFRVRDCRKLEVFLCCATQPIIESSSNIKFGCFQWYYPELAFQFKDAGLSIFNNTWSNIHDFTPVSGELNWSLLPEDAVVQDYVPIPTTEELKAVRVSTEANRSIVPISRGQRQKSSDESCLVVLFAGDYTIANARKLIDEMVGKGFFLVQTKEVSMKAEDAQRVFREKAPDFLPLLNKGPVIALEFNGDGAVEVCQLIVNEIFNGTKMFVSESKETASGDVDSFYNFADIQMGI
# UniProt O75818: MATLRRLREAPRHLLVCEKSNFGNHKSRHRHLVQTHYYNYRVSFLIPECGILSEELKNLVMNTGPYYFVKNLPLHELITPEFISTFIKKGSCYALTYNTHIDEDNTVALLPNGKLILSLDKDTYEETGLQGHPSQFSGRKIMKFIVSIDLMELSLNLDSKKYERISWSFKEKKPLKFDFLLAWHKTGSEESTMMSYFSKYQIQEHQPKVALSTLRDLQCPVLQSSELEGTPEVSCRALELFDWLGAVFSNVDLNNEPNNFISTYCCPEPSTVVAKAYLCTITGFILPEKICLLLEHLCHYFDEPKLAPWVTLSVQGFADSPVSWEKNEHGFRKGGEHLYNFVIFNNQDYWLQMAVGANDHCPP
# This is one part of the list.
# Compound: CS(=O)(=O)N1CCN(Cc2cc3nc(-c4cccc5[nH]ncc45)nc(N4CCOCC4)c3s2)CC1 [pictilisib]
# Assay: log2 fold change, soluble protein after heating vs DMSO (PISA); higher = thermal stabilisation; K562 cells, 10 uM, 30 min; active = over 0.2 and 3.5 SD of the protein, either way, in both replicates (recomputed)
# Summary of the method: (§1)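 K562 cells at 2×10^6 cells/mL were treated with 10 μM compound for 30 min. Aliquots were heated for 3 min across 48°C-58°C, pooled, and extracted in PBS with 0.5% NP-40 at 4°C; soluble protein was the supernatant after 21,000xg for 90 min. Soluble protein was quantified by TMTpro 16plex LC-MS/MS with channel sums equalised, and reported as log2 fold change in thermal stability against DMSO controls, with values from duplicates.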
row,Target,log2 fold change
1,RPL13 (UniProt P26373),inactive: -0.077
2,RNF25 (UniProt Q96BH1),inactive: 0.064
3,RPL8 (UniProt P62917),inactive: -0.177
4,RPS27 (UniProt P42677),inactive: -0.065
5,RPS19BP1 (UniProt Q86WX3),inactive: -0.01
6,RPL35 (UniProt P42766),inactive: -0.165
7,RPS10 (UniProt P46783),inactive: -0.151
8,RRBP1 (UniProt Q9P2E9),inactive: -0.201
9,RPL22 (UniProt P35268),inactive: -0.039
10,RPS6 (UniProt P62753),inactive: -0.156
11,RRAS (UniProt P10301),inactive: -0.009
12,RPL7 (UniProt P18124),inactive: -0.215
13,RPL13A (UniProt P40429),inactive: -0.27
14,RPL26 (UniProt P61254),inactive: -0.661
15,RPS29 (UniProt P62273),inactive: -0.147
16,RNGTT (UniProt O60942),inactive: 0.17
17,RPAP3 (UniProt Q9H6T3),inactive: 0.017
18,RPL3L (UniProt Q92901),inactive: -0.118

# Compound: CS(=O)(=O)c1ccc(-c2cnc(N)c(C(=O)Nc3ccccc3)n2)cc1
# Assay: as above
# Summary of the method: as §1
row,Target,log2 fold change
1,RPL9 (UniProt P32969),inactive: -0.102
2,RNH1 (UniProt P13489),inactive: -0.004
3,RPL24 (UniProt P83731),inactive: -0.047
4,RPS17 (UniProt P08708),inactive: -0.063
5,RPL17 isoform 3 (UniProt P18621),inactive: -0.053
6,RPN1 (UniProt P04843),inactive: 0.015
7,RPP30 isoform 2 (UniProt P78346),inactive: -0.062
8,RPL15 (UniProt P61313),inactive: -0.111
9,RO60 (UniProt P10155),inactive: 0.042
10,RRM2B isoform 6 (UniProt Q7LG56),inactive: 0.017
11,RP2 (UniProt O75695),inactive: 0.024
12,RPP40 (UniProt O75818),inactive: -0.006
13,RPL36 (UniProt Q9Y3U8),inactive: -0.151
14,RPL11 (UniProt P62913),inactive: -0.021
15,RPL13 (UniProt P26373),inactive: -0.003
16,RNF25 (UniProt Q96BH1),inactive: 0.008

row,Target,log2 fold change
1,RPL8 (UniProt P62917),inactive: -0.201
2,RPS27 (UniProt P42677),inactive: -0.009
3,RPS19BP1 (UniProt Q86WX3),inactive: -0.018
4,RPL35 (UniProt P42766),inactive: -0.115
5,RPS10 (UniProt P46783),inactive: -0.057
6,RRBP1 (UniProt Q9P2E9),inactive: -0.067
7,RPL22 (UniProt P35268),inactive: -0.08
8,RPS6 (UniProt P62753),inactive: -0.031
9,RRAS (UniProt P10301),inactive: 0.024
10,RPL7 (UniProt P18124),inactive: -0.043
11,RPL13A (UniProt P40429),inactive: -0.149
12,RPL26 (UniProt P61254),inactive: -0.462
13,RPS29 (UniProt P62273),inactive: -0.043
14,RNGTT (UniProt O60942),inactive: 0.026
15,RPAP3 (UniProt Q9H6T3),inactive: 0.073
16,RPL3L (UniProt Q92901),inactive: -0.083

# Compound: C[C@@H](Oc1cc(-c2cnn(C3CCNCC3)c2)cnc1N)c1c(Cl)ccc(F)c1Cl [crizotinib]
# Assay: as above
# Summary of the method: as §1
row,Target,log2 fold change
1,RPL9 (UniProt P32969),inactive: -0.004
2,RNH1 (UniProt P13489),inactive: -0.031
3,RPL24 (UniProt P83731),inactive: -0.001
4,RPS17 (UniProt P08708),inactive: 0.01
5,RPL17 isoform 3 (UniProt P18621),inactive: 0.009
6,RPN1 (UniProt P04843),inactive: -0.009
7,RPP30 isoform 2 (UniProt P78346),inactive: 0.04
8,RPL15 (UniProt P61313),inactive: 0.091
9,RO60 (UniProt P10155),inactive: 0.034
10,RRM2B isoform 6 (UniProt Q7LG56),inactive: -0.003
11,RP2 (UniProt O75695),inactive: -0.048
12,RPP40 (UniProt O75818),inactive: 0.069
13,RPL36 (UniProt Q9Y3U8),inactive: 0.011
14,RPL11 (UniProt P62913),inactive: 0.06
15,RPL13 (UniProt P26373),inactive: 0.024
16,RNF25 (UniProt Q96BH1),inactive: 0.013

row,Target,log2 fold change
1,RPL8 (UniProt P62917),inactive: 0.107
2,RPS27 (UniProt P42677),inactive: -0.015
3,RPS19BP1 (UniProt Q86WX3),inactive: -0.04
4,RPL35 (UniProt P42766),inactive: 0.034
5,RPS10 (UniProt P46783),inactive: 0.007
6,RRBP1 (UniProt Q9P2E9),inactive: 0.048
7,RPL22 (UniProt P35268),inactive: 0.096
8,RPS6 (UniProt P62753),inactive: 0.04
9,RRAS (UniProt P10301),inactive: 0.107
10,RPL7 (UniProt P18124),inactive: 0.07
11,RPL13A (UniProt P40429),inactive: 0.113
12,RPL26 (UniProt P61254),inactive: 0.069
13,RPS29 (UniProt P62273),inactive: 0.039
14,RNGTT (UniProt O60942),inactive: -0.092
15,RPAP3 (UniProt Q9H6T3),inactive: -0.066
16,RPL3L (UniProt Q92901),inactive: 0.205
